{"source": "patent US20130028974A1", "about": "“PHARMACEUTICAL FORMULATION IN THE FORM OF BILAYERED TABLETS COMPRISING HMG-COA REDUCTASE INHIBITOR AND IRBESARTAN” (HANMI SCIENCE CO., LTD, priority 2010, published 2013)", "origin": "cited, not measured here", "conditions": "crystalline form versus amorphous form", "data": [{"smiles": "CC(C)c1c(C(=O)Nc2ccccc2)c(-c2ccccc2)c(-c2ccc(F)cc2)n1CC[C@@H](O)C[C@@H](O)CC(=O)O", "note": "[crystalline form of atorvastatin, atorvastatin]", "values": [{"measurement": "Increase in Cmax (in vivo absorption rate)", "value": "~50", "unit": "%"}]}]}
